From publication doi:10.1101/2024.01.05.574302 (bioRxiv, 2024) come the findings set out here.

By UniProt entry, the sequences of proteins in these tests, tags left out. Residues count along the entry.
APC-SAMP1 (aa 1546-1597) (P25054, residues 1546-1597): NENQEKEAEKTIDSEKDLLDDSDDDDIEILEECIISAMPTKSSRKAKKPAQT
APC-SAMP2 (aa 1705-1754) (P25054, residues 1705-1754): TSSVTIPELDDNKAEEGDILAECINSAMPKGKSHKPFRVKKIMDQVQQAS
APC-SAMP3 (aa 2009-2074) (P25054, residues 2009-2074): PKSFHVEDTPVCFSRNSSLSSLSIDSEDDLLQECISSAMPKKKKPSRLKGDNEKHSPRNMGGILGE

The target in assay [1] is T1, ASAP1 SH3 domain (aa. 1083-1147) (mouse, UniProt Q9QWY8 1083-1147).
T1 sequence (looked up): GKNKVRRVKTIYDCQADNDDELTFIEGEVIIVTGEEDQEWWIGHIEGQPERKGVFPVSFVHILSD
The assay can be described thus: ITC.

Assay [2] has as its target T2, gAnkB (aa. 1476-1727) fragment of the neurospecific domain, Trx-His6-3×StrepII fusion (human) (UniProt Q01484).
T2 sequence: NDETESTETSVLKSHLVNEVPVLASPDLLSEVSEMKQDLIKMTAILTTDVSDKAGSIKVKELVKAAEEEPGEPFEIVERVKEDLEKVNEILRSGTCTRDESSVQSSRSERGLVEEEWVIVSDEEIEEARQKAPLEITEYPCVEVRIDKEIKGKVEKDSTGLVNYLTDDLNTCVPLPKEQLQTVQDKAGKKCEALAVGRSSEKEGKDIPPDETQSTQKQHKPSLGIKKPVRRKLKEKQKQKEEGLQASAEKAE
Nature of the assay: pull-down.

Like-named read-outs stand apart in the source and are kept apart here. No constants are given. Whether binding was seen depends on the method and setting. For some assays here: In cells and extracts the contact can be indirect. Some entries that bind do so weakly or less than the wild type. For some assays here: Sequences can lack the tags named with a protein.

Consider “APC-SAMP1 (aa 1546-1597) (from UniProt P25054 1546-1597) (domain or fragment)”, for which the binding result in assay [1] is “binds”.
As for “APC-SAMP2 (aa 1705-1754) (from UniProt P25054 1705-1754) (domain or fragment)”, the binding result in assay [1] and in assay [1] (record 2) was “binds” in each case.
Regarding “APC-SAMP3 (aa 2009-2074) (from UniProt P25054 2009-2074) (domain or fragment)”, in assay [1], the binding entry is listed as “binds”.
For “Flag-tagged full-length ASAP1 (from UniProt Q9QWY8 1-1147)”, the binding entry in assay [2] is recorded as “binds”.
